Measurements as given in PubChem BioAssay AID2685 (National Center for Advancing Translational Sciences (NCATS), 2010).
The other results are listed elsewhere or left out. Further columns of the screen follow, without active or inactive calls. The list favours compounds with an active or inconclusive main result. Words in brackets tell the shape of the fitted curve; partial curves, single points and poor fits give uncertain potencies.

Experiment: qHTS Assay for Lipid Storage Modulators in Drosophila S3 Cells;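 as to cell number change: cells counted by Cell Tracker Red CMTPX staining in the red channel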
Conditions: BODIPY lipid droplet fluorescence, 18-24 h; for cell number change: measured here: cell count max response, cells fed with added oleic acid
Procedure, shortened: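 Laser-scanning cytometry quantifies lipid droplet accumulation (500–530 nm total intensity; droplet/cell object ratio) in oleic acid-fed (400 uM added) Drosophila S3 cells treated with a concentration series. 20 uM Triacsin C defined 100% inhibition.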

[1] = measured here: cell number channel AC50, cells fed with added oleic acid
[2] = measured here: lipid fluorescence (Fed channel) AC50, cells fed with added oleic acid

Structure (SMILES)	AC50 [1]	cell number change [%]	AC50 [2]
CN(C)CCN(C(=O)C1CCN(S(=O)(=O)c2cccs2)CC1)c1nc2c(F)cccc2s1	0.146 µM [rising, full curve, poor fit]	–	–
COc1ccc(S(=O)(=O)N2CCN(C(=O)CCCN3C(=O)NC4(CCCC4)C3=O)CC2)cc1	–	-13.5	0.731 µM [rising, single point]
CCCSc1nc2sc3c(c2c(=O)n1-c1ccc(OC)cc1)CCN(C)C3	–	5.56	2.31 µM [rising, partial curve]
Cc1cc(OC(=O)c2c(F)cc(F)cc2F)nc(C)n1	0.00651 µM [falling, full curve, poor fit]	-19	–
Cc1cccc(N(C(=O)CNC(=O)c2ccco2)C(C(=O)NCC2CCCO2)c2ccccc2)c1 (stereo unspecified)	–	22.1	–
Cc1ccc(NC(=O)CSc2nnc(COc3ccc(C#N)cc3)n2-c2ccccc2)cc1C	–	-9.98	0.366 µM [rising, full curve, poor fit]
COc1ccc(N2CCN(c3oc(-c4ccc(OC)c(OC)c4)nc3C#N)CC2)cc1	–	5.6	–
CC(C)NC(=O)NC(=O)COC(=O)c1cccc(OC(F)F)c1	–	28.7	–
CN(c1ccc(C(=O)NCCSCc2ccccc2)cc1)S(=O)(=O)c1ccccc1	–	-17.6	11.6 µM [falling, single point]
COC(=O)CC1C(=O)NCCN1C(=O)c1ccc(Cl)cc1 (stereo unspecified)	–	-12.6	–
S=C(Nc1ccc(Cl)c(Cl)c1)N1CCN(c2ccccn2)CC1	0.00517 µM [rising, full curve, poor fit]	23.8	29.1 µM [rising, single point]
CCCCCCCc1c(C#N)c(N)[nH]c(=S)c1C#N	–	32.7	3.26 µM [falling, single point]
COc1cccc(-c2nnc3sc(C4CCCCC4)nn23)c1	–	4.29	29.1 µM [rising, partial curve]
Cn1c(/C=C/c2ccc(Cl)cc2)nc2ccccc2c1=O	–	0.275	29.1 µM [falling, single point]
Fc1ccccc1N1CCN(c2cnc3ccccc3n2)CC1	25.9 µM [rising, single point]	38.2	–
CN(Cc1cccc(F)c1)C(=O)c1ccc(NS(=O)(=O)c2ccc3[nH]c(=O)[nH]c3c2)cc1	29.1 µM [rising, single point]	50	–
COC(=O)C1=C(C)NC(C)=C(C(=O)OC)C1C(=O)OCc1nc2cc(C(=O)OC)ccc2c(=O)[nH]1	23.1 µM [rising, single point]	33.9	–
CC(C)c1nnc(NC(=O)C2CCCN(C(=O)Nc3ccc(F)cc3)C2)s1 (stereo unspecified)	–	–	0.058 µM [falling, partial curve, poor fit]

An excerpt from above in order of molecular weight, descending.
Structure (SMILES)	AC50 [1]	cell number change [%]	AC50 [2]
CN(c1ccc(C(=O)NCCSCc2ccccc2)cc1)S(=O)(=O)c1ccccc1	–	-17.6	11.6 µM [falling, single point]
COC(=O)CC1C(=O)NCCN1C(=O)c1ccc(Cl)cc1 (stereo unspecified)	–	-12.6	–
Cn1c(/C=C/c2ccc(Cl)cc2)nc2ccccc2c1=O	–	0.275	29.1 µM [falling, single point]
